Results are given in words; binding and its absence hold for the method and conditions named. In cells and extracts the contact can be indirect. A yes stands for co-enrichment or nearness to the bait. Other partners may have been found. For some assays here: No binding means not detected with the bait. For some assays here: Sequences can lack the tags named with a protein.
Tests used:
[1] = target: AC5-miniTurbo-FLAG fusion protein (human adenylyl cyclase 5) (human) (UniProt O95622); test: affinity purification with mass spectrometry; FLAG-MS: anti-FLAG M2 magnetic beads on lysates (0.1% NP-40, 100 mM KCl) of neonatal rat cardiomyocytes expressing AC-mT-FLAG, 2 to 3 h at 4 °C, SAINT against GFP-mT-FLAG
[2] = target: AC5-miniTurbo-FLAG fusion protein (human adenylyl cyclase 5) (human) (UniProt O95622); test: proximity labelling; BioID: AC-miniTurbo-FLAG baits virally expressed in primary neonatal rat cardiomyocytes, vehicle or 48 h norepinephrine, 50 μM biotin 3 h, RIPA lysis, streptavidin pull-down, LC-MS/MS, SAINT score ≥0.7 against GFP-mT and uninfected controls
[3] = target: T1, AC9-miniTurbo-FLAG fusion protein (human adenylyl cyclase 9) (human) (UniProt O60503); test: as above
T1 sequence: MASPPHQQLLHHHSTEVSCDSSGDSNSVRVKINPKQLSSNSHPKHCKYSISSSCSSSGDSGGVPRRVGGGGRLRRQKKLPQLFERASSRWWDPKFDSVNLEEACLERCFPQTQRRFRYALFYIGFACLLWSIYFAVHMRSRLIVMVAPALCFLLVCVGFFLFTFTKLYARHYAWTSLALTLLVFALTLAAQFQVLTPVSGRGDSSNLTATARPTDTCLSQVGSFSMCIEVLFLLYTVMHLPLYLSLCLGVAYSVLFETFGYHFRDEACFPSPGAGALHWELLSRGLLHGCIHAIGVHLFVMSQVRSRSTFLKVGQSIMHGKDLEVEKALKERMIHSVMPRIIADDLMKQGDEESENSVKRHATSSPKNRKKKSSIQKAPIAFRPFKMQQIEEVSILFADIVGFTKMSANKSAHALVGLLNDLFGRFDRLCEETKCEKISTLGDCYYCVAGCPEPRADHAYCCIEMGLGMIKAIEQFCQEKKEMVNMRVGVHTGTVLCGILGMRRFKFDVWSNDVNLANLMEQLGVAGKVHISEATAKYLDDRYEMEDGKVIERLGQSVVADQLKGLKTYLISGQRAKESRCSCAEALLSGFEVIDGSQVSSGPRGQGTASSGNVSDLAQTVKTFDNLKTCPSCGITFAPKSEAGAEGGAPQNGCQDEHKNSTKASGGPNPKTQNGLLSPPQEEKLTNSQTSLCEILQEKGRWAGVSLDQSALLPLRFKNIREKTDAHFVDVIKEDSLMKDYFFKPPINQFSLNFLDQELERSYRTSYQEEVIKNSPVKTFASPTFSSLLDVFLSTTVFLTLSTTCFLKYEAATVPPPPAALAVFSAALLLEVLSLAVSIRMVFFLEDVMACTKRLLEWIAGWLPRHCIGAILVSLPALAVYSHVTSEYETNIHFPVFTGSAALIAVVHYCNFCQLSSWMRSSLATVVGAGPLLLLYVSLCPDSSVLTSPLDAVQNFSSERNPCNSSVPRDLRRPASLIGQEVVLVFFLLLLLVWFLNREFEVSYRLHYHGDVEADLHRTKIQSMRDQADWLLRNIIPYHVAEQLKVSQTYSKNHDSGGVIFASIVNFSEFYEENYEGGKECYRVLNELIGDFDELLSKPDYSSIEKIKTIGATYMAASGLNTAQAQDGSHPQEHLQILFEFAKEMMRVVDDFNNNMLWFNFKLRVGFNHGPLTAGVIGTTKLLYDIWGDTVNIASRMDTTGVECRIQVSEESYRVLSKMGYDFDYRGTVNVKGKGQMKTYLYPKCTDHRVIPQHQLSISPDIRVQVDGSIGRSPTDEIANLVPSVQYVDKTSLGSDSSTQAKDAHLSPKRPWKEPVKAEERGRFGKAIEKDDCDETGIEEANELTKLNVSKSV

Amino acid sequences for entries named in this document (tags omitted). Residues count along the entry.
UniProt O95622: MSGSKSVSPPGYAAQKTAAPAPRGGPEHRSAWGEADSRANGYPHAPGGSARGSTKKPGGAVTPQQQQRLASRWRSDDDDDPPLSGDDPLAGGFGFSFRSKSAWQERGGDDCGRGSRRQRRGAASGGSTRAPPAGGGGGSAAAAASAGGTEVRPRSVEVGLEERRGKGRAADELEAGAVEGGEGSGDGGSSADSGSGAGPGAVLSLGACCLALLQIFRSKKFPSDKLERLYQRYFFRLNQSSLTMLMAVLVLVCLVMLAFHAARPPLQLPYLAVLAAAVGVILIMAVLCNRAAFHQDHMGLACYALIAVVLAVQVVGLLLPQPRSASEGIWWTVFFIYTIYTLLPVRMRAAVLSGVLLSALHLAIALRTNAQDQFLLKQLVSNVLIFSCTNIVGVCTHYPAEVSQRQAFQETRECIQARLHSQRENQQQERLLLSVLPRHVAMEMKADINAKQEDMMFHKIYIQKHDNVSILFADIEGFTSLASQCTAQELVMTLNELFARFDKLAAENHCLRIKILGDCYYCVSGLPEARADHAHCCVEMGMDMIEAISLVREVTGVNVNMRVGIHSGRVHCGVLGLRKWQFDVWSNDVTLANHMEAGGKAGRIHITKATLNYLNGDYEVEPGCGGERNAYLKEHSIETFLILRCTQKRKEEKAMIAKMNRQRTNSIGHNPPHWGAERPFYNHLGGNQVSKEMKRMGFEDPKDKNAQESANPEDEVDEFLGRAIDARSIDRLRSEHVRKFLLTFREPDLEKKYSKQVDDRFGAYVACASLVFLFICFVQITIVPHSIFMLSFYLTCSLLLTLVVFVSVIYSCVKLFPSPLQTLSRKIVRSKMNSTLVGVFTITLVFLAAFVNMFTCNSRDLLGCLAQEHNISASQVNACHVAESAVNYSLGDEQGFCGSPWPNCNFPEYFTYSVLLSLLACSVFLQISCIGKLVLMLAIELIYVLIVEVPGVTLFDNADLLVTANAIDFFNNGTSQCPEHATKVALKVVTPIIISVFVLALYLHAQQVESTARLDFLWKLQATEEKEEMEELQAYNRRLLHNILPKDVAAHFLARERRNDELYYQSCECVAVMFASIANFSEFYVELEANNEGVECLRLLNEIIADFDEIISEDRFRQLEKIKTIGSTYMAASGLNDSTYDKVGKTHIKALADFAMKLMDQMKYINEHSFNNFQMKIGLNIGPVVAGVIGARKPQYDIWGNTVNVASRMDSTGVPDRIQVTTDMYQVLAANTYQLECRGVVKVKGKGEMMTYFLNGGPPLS
UniProt O43306: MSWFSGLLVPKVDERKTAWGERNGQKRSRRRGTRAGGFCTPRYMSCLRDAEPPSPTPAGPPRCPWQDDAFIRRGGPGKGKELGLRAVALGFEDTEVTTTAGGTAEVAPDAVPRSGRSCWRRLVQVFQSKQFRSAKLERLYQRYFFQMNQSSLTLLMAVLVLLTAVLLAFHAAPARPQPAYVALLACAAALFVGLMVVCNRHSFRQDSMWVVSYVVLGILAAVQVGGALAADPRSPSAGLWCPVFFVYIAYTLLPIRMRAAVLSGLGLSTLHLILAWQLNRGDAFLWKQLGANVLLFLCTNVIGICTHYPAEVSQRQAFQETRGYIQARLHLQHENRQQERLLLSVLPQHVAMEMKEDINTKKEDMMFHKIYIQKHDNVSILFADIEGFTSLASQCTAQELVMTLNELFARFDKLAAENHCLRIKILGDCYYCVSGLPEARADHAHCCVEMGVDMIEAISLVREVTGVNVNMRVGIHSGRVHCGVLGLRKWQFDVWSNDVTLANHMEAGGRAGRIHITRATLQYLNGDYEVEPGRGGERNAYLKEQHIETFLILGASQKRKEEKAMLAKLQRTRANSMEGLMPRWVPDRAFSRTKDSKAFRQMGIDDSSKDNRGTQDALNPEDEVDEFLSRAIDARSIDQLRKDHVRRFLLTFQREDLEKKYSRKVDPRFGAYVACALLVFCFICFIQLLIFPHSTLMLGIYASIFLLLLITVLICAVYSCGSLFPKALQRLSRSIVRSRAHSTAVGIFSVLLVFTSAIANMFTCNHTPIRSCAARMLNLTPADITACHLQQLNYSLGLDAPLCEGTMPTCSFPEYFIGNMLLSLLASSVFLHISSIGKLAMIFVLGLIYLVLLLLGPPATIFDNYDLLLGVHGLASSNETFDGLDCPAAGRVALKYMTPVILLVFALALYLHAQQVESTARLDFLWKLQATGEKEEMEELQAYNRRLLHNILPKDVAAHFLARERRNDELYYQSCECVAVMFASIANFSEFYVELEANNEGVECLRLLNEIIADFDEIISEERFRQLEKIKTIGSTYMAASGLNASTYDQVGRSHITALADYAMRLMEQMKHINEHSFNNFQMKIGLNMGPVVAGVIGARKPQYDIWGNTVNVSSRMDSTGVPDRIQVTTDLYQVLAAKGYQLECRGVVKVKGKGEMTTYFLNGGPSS
UniProt P20786, residues 24-1088: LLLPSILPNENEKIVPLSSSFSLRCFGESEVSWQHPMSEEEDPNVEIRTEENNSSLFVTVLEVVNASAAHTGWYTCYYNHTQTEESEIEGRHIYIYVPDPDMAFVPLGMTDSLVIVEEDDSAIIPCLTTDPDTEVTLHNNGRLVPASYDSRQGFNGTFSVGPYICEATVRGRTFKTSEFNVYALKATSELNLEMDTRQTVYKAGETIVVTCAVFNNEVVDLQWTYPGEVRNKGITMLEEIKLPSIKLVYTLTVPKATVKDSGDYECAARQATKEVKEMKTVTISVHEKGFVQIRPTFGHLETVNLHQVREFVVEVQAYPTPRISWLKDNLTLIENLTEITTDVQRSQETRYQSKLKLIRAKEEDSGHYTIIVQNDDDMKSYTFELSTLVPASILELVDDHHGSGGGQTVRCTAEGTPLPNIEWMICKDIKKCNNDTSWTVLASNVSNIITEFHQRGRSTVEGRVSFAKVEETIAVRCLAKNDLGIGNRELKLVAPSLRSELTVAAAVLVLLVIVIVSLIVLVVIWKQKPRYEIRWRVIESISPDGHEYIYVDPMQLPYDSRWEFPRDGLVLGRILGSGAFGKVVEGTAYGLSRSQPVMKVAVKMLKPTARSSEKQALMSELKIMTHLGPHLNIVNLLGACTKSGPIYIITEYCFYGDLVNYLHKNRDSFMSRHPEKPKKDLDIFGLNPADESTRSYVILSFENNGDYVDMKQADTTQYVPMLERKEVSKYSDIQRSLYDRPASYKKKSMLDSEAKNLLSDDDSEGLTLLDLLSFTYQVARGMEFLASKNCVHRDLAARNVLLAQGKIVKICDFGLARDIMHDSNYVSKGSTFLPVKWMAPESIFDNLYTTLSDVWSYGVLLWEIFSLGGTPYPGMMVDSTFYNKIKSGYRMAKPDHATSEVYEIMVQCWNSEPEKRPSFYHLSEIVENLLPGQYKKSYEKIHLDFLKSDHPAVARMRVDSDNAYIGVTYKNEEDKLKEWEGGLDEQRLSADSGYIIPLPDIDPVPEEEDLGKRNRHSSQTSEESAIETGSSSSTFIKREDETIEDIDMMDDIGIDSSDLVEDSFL
UniProt P84903, residues 23-685: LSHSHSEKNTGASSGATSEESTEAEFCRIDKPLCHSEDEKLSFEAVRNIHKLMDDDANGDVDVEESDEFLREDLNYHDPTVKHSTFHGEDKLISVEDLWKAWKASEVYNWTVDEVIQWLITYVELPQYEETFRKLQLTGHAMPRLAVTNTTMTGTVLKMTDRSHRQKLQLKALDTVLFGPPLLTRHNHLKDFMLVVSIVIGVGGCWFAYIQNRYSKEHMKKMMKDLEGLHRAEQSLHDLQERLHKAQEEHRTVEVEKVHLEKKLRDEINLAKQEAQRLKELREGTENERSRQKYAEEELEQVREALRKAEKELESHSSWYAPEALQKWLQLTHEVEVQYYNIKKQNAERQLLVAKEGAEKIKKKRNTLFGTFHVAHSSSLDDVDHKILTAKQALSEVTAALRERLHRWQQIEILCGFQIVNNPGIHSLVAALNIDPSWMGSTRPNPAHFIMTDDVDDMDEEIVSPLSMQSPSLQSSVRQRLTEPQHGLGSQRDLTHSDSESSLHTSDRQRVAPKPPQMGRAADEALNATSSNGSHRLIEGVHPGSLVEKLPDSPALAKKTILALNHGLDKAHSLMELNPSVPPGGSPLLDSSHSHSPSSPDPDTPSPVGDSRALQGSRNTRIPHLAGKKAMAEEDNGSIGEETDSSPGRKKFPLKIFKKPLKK
UniProt Q04400: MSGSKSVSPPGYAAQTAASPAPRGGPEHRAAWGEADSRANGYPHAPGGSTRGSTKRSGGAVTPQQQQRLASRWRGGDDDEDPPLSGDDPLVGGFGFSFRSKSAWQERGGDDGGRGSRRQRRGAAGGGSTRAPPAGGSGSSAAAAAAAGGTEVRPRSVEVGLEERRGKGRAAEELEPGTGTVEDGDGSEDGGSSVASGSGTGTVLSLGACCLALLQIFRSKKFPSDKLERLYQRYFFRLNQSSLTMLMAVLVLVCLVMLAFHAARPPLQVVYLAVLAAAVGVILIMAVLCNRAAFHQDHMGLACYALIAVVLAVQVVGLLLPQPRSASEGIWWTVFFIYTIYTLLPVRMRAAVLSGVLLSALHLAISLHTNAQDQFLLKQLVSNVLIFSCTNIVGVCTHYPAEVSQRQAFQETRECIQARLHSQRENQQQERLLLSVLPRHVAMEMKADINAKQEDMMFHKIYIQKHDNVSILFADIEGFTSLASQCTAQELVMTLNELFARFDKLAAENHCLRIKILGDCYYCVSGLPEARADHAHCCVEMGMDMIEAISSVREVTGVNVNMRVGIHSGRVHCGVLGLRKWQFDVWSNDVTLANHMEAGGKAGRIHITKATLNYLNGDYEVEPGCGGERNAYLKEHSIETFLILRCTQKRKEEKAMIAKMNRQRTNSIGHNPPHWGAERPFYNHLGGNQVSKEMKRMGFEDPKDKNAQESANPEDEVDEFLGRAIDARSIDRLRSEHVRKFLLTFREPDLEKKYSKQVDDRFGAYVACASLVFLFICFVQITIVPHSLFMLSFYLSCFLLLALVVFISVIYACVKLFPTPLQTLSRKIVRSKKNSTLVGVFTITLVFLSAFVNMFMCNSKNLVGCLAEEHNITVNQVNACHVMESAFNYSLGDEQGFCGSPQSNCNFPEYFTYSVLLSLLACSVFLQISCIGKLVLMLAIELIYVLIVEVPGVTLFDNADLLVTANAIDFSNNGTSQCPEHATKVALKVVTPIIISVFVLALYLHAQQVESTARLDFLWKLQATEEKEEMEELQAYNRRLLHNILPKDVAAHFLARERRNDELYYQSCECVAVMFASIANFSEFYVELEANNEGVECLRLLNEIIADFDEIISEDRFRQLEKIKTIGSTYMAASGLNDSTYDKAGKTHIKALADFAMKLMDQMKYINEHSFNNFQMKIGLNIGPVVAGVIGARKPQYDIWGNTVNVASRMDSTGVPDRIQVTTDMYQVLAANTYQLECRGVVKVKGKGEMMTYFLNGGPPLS
UniProt P63045: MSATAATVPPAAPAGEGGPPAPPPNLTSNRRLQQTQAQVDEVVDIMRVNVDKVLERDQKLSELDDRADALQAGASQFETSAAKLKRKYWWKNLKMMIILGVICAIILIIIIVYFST
UniProt P11507: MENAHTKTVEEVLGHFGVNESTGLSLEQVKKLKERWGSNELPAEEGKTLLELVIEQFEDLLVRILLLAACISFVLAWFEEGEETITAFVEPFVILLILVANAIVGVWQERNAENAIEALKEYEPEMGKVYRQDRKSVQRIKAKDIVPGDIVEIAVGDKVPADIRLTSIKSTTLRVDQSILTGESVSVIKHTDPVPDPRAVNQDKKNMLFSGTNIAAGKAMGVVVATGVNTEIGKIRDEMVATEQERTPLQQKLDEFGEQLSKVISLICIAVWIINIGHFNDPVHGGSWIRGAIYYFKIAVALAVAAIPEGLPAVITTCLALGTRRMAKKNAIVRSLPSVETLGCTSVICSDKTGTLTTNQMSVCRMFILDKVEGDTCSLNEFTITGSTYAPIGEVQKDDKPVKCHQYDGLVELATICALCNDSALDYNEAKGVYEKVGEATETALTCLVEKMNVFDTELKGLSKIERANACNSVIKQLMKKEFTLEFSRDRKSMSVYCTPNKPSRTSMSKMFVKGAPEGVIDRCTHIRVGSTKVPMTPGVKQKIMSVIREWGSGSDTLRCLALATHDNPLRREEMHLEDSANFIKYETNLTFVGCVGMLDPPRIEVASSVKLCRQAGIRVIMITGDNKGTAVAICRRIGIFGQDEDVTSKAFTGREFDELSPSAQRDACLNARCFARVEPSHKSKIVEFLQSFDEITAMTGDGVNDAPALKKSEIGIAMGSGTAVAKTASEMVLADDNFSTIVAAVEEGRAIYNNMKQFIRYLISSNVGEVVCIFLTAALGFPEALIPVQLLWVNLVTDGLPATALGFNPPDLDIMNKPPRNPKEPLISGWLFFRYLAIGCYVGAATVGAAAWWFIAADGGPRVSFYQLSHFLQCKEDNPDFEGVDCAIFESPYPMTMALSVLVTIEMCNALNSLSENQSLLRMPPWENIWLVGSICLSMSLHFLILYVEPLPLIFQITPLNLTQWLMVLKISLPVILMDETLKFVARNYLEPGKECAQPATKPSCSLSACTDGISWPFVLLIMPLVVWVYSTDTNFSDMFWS

[4] = target: AC6-miniTurbo-FLAG fusion protein (human adenylyl cyclase 6) (human) (UniProt O43306); test: as above
[5] = target: AC6-miniTurbo-FLAG fusion protein (human adenylyl cyclase 6) (human) (UniProt O43306); test: affinity purification with mass spectrometry; FLAG-MS: anti-FLAG M2 magnetic beads on lysates (0.1% NP-40, 100 mM KCl) of neonatal rat cardiomyocytes expressing AC-mT-FLAG, 2 to 3 h at 4 °C, SAINT against GFP-mT-FLAG
[6] = target: T1, AC9-miniTurbo-FLAG fusion protein (human adenylyl cyclase 9) (human); test: as above

Substance | binding [2] | binding [3] | other results
endogenous AC6 (from UniProt Q03343 1-1166) (enzyme) | binds |  | binding [1]: binds
AKAP12 (from UniProt Q5QD51 1-1687) | binds |  | 
platelet-derived growth factor receptor alpha (from UniProt P20786 24-1088) | binds |  | 
KCNQ1 (from UniProt Q9Z0N7 1-669) |  | binds weakly | 
desmoglein (DSG2) |  | binds | 
ORAI1 (from UniProt Q5M848 1-304) | no binding |  | binding [4]: no binding
discs large MAGUK-scaffold protein 1 (DLG1) (from UniProt Q62696 1-911) | binds |  | 
AKAP5 (from UniProt P24587 1-714) | binds weakly | binds | 
ryanodine receptor 2 (RYR2) (from UniProt B0LPN4 1-4955) |  |  | binding [5]: binds
STIM1 (from UniProt P84903 23-685) | binds |  | binding [4]: binds
endogenous AC5 (from UniProt Q04400 1-1262) (enzyme) |  |  | binding [6]: binds weakly; binding [5]: binds; binding [4]: binds
vesicle-associated membrane protein 2 (VAMP2) (from UniProt P63045 1-116) |  | binds | 
syntrophin alpha 1 (SNTA1) |  | binds | 
dystroglycan (DAG1) |  | binds | 
ATP2A2 (sarco/endoplasmic reticulum Ca2+-ATPase 2) (from UniProt P11507 1-1043) |  |  | binding [6]: binds; binding [5]: binds; binding [1]: binds
